Data from PubChem BioAssay AID330 (DTP/NCI, 2004).
The list shows only some results of the screen, not a fair sample: it is rich in T/C values a quarter to a half above the control, in often repeated tests (any T/C) and in doses without a T/C. Other doses and runs of a compound stand elsewhere. T/C is the treated group as % of the vehicle group. Some entries give survivors of the animals treated and no T/C: the source files T/C as zero there, which appears to mark a toxic dose or a test without result, not a measured value. Some doses without a T/C left all or most animals alive at the check, yet need not have been tolerated: the source hardly ever lists a survival T/C far under the control, and the zero likely stands for such cases as well. Counts of survivors are from the toxicity check (mostly the fifth day) where no day follows; animals may have died later. Schedules are NCI's codes, taken here to give the interval after Q, in days (D) or hours (H), and the number of doses after X. Some entries hold several experiments; their values stand side by side, smallest first. For survival time, the PubChem record calls one and a half times the control and up active, and a quarter to a half above the control has no call in these data; cut-offs in other NCI protocols can differ. Some T/C values are followed by the survivors on the day toxicity was checked, most often the fifth; without a count, all were alive then.

Tested on: P388 leukemia ip, CD2F1 mice, survival T/C
Experiment: NCI In Vivo Anticancer Drug Screen. Data for tumor model P388 Leukemia (intraperitoneal) in CD2F1 (CDF1) mice
Settings: T/C endpoint: median survival time, higher T/C = longer survival
[1] = dose: 100.0 mg/kg/injection, schedule: Q01DX005 (ip), vehicle: saline with Tween-80
[2] = dose: 200.0 mg/kg/injection, schedule: Q01DX005 (ip), vehicle: saline with Tween-80
[3] = dose: 100.0 mg/kg/injection, schedule: Q01DX005 (ip), vehicle: Klucel (hydroxypropylcellulose) (HPC)
[4] = dose: 200.0 mg/kg/injection, schedule: Q01DX005 (ip), vehicle: Klucel (hydroxypropylcellulose) (HPC)
[5] = dose: 50.0 mg/kg/injection, schedule: Q01DX009 (ip), vehicle: saline
[6] = dose: 200.0 mg/kg/injection, schedule: Q01DX009 (ip), vehicle: saline

## CC[C@](C)(O)C(=O)O[C@H]1C(=O)O[C@@H]2C[C@H]3C(C)=CC(=O)[C@@H](O)[C@]3(C)[C@H]3[C@@]4(O)OC[C@]32[C@@H]1[C@@H](C)[C@H]4O
dose: 0.43 mg/kg/injection, schedule: Q01DX009 (ip), vehicle: saline with Tween-80
  T/C: 128 % of control
dose: 0.48 mg/kg/injection, schedule: Q01DX009 (ip), vehicle: saline with Tween-80
  T/C: 128 % of control
dose: 0.53 mg/kg/injection, schedule: Q01DX009 (ip), vehicle: saline with Tween-80
  T/C: 137 % of control
dose: 0.59 mg/kg/injection, schedule: Q01DX009 (ip), vehicle: saline with Tween-80
  T/C: 135 % of control
dose: 0.66 mg/kg/injection, schedule: Q01DX009 (ip), vehicle: saline with Tween-80
  T/C: 131 % of control
dose: 0.73 mg/kg/injection, schedule: Q01DX009 (ip), vehicle: saline with Tween-80
  T/C: 135 % of control
dose: 0.81 mg/kg/injection, schedule: Q01DX009 (ip), vehicle: saline with Tween-80
  T/C: 144 % of control
dose: 0.9 mg/kg/injection, schedule: Q01DX009 (ip), vehicle: saline with Tween-80
  T/C: 146 % of control [5 of 6 alive]
dose: 1.0 mg/kg/injection, schedule: Q01DX009 (ip), vehicle: saline with Tween-80
  T/C: 140 % of control

## COc1ccc(C(C)c2cc(N=O)c(OC)cc2O)cc1 (stereo not given)
[1]
  survivor count: 6 of 6
[2]
  survivor count: 6 of 6

## CC(N)(CCS(=O)CP(=O)(O)O)C(=O)O (stereo not given)
dose: 240.0 mg/kg/injection, schedule: Q01DX005 (ip), vehicle: saline
  survivor count: 5 of 6

## COc1cc(C=Nc2cc(Cl)ccc2-n2ccnc2C)ccc1N(CCCl)CCCl
dose: 100.0 mg/kg/injection, schedule: Q04DX003 (ip), vehicle: saline with Tween-80
  T/C: 146 % of control
dose: 400.0 mg/kg/injection, schedule: Q04DX003 (ip), vehicle: saline with Tween-80
  survivor count: 6 of 6

## N=C(N)c1ccc2oc(/C=C/C=C/c3cc4cc(C(=N)N)ccc4o3)cc2c1
dose: 100.0 mg/kg/injection, schedule: Q04DX003 (ip), vehicle: suspension in saline
  T/C: 125 % of control
dose: 200.0 mg/kg/injection, schedule: Q04DX003 (ip), vehicle: suspension in saline
  T/C: 129 % of control
dose: 600.0 mg/kg/injection, schedule: Q04DX003 (ip), vehicle: suspension in saline
  T/C: 134 % of control

## N#CN=[N+]([O-])c1ccc(Cl)cc1
dose: 50.0 mg/kg/injection, schedule: Q04DX003 (ip), vehicle: Klucel (hydroxypropylcellulose) (HPC)
  survivor count: 4 of 6

## COC(=O)COc1cc2c(cc1C(C)c1ccc(OCc3ccccc3)cc1)OCO2 (stereo not given)
dose: 25.0 mg/kg/injection, schedule: Q01DX005 (ip), vehicle: distilled water + Tween-80
  survivor count: 6 of 6
dose: 50.0 mg/kg/injection, schedule: Q01DX005 (ip), vehicle: distilled water + Tween-80
  survivor count: 6 of 6
dose: 100.0 mg/kg/injection, schedule: Q01DX005 (ip), vehicle: distilled water + Tween-80
  survivor count: 6 of 6

## C1COCCOCCOCCOCCO1.[Cl][Sn]([Cl])([Cl])[Cl]
dose: 240.0 mg/kg/injection, schedule: Q01DX005 (ip), vehicle: Klucel (hydroxypropylcellulose) (HPC)
  survivor count: 2 of 6

## O=CC(NC(=O)N(CCCl)N=O)C(O)C(O)C(O)CO (stereo not given)
dose: 1.5 mg/kg/injection, schedule: Q01DX005 (ip), vehicle: water
  T/C: 132 % of control
dose: 2.59 mg/kg/injection, schedule: Q04DX002 (ip), vehicle: saline
  T/C: 145 % of control
dose: 3.0 mg/kg/injection, schedule: Q01DX005 (iv), vehicle: saline
  T/C: 137 % of control
dose: 6.25 mg/kg/injection, schedule: Q01DX009 (ip), vehicle: saline
  T/C: 142 % of control
dose: 12.0 mg/kg/injection, schedule: Q01DX001 (iv), vehicle: saline
  T/C: 138 % of control
dose: 12.5 mg/kg/injection, schedule: Q01DX009 (ip), vehicle: saline
  survivor count: 6 of 6
dose: 24.0 mg/kg/injection, schedule: Q01DX005 (ip), vehicle: saline
  survivor count: 6 of 6
dose: 24.0 mg/kg/injection, schedule: Q01DX005 (ip), vehicle: water
  survivor count: 4 of 5
dose: 24.0 mg/kg/injection, schedule: Q01DX005 (iv), vehicle: saline
  survivor count: 6 of 6
dose: 24.0 mg/kg/injection, schedule: Q04DX003 (ip), vehicle: saline
  survivor count: 8 of 8
dose: 27.0 mg/kg/injection, schedule: Q04DX003 (ip), vehicle: saline
  T/C: 127 % of control
dose: 48.0 mg/kg/injection, schedule: Q01DX001 (ip), vehicle: saline
  survivor count: 6 of 6
dose: 48.0 mg/kg/injection, schedule: Q01DX001 (iv), vehicle: saline
  survivor count: 6 of 6

## ClCc1nsc(Cl)n1
[3]
  survivor count: 0 of 6
[4]
  survivor count: 0 of 6

## CCOC(=O)c1cc2cc3c4c(c2oc1=O)CCCN4CCC3
[3]
  survivor count: 0 of 6
[4]
  survivor count: 0 of 6

## O=[N+]([O-])/N=c1/nc2scc(-c3ccc([N+](=O)[O-])cc3)n2s1
dose: 15.0 mg/kg/injection, schedule: Q01DX005 (ip), vehicle: saline with Tween-80
  survivor count: 6 of 6
dose: 30.0 mg/kg/injection, schedule: Q01DX005 (ip), vehicle: saline with Tween-80
  survivor count: 6 of 6
dose: 60.0 mg/kg/injection, schedule: Q01DX005 (ip), vehicle: saline with Tween-80
  survivor count: 6 of 6
dose: 120.0 mg/kg/injection, schedule: Q01DX005 (ip), vehicle: saline with Tween-80
  survivor count: 5 of 6 and 6 of 6

## O=C1CN(c2cccc(C(F)(F)F)c2)C(=O)CN1/N=C/c1ccc(O)c(O)c1
dose: 50.0 mg/kg/injection, schedule: Q01DX005 (ip), vehicle: saline with Tween-80
  survivor count: 6 of 6
[1]
  survivor count: 6 of 6
[2]
  survivor count: 6 of 6

## CC[CH](C)[Sn](=[O])[CH](C)CC (stereo not given)
dose: 6.25 mg/kg/injection, schedule: Q01DX009 (ip), vehicle: suspension in saline
  survivor count: 2 of 6
dose: 12.5 mg/kg/injection, schedule: Q01DX009 (ip), vehicle: suspension in saline
  survivor count: 2 of 6
dose: 25.0 mg/kg/injection, schedule: Q01DX009 (ip), vehicle: suspension in saline
  survivor count: 0 of 6
[5]
  survivor count: 0 of 6
dose: 100.0 mg/kg/injection, schedule: Q01DX009 (ip), vehicle: saline
  survivor count: 0 of 6
[6]
  survivor count: 0 of 6

## CC(C)(C)NC(=S)N/N=C/c1cc(Cl)cc(Cl)c1O
dose: 12.5 mg/kg/injection, schedule: Q01DX009 (ip), vehicle: saline with Tween-80
  survivor count: 6 of 6
dose: 25.0 mg/kg/injection, schedule: Q01DX009 (ip), vehicle: saline with Tween-80
  survivor count: 6 of 6
dose: 50.0 mg/kg/injection, schedule: Q01DX009 (ip), vehicle: saline with Tween-80
  survivor count: 6 of 6
dose: 100.0 mg/kg/injection, schedule: Q01DX009 (ip), vehicle: saline with Tween-80
  survivor count: 6 of 6

## [N-]=[N+]=C1C(=O)NC(=O)N2C3CC(O)C(COC12)O3 (stereo not given)
dose: 100.0 mg/kg/injection, schedule: Q01DX009 (ip), vehicle: saline sonified
  T/C: 138 % of control
dose: 200.0 mg/kg/injection, schedule: Q01DX009 (ip), vehicle: saline sonified
  T/C: 147 % of control
dose: 400.0 mg/kg/injection, schedule: Q01DX009 (ip), vehicle: saline sonified
  T/C: 128 % of control

## [C-]#[N+]C([N+]#[C-])=C(C)OCC
[5]
  survivor count: 6 of 6
[6]
  survivor count: 6 of 6

## O=P1(NCCCl)OCCCN1CCCl (stereo not given)
dose: 15.0 mg/kg/injection, schedule: Q01DX005 (ip), vehicle: saline
  T/C: 131 % of control
dose: 15.0 mg/kg/injection, schedule: Q01DX005 (iv), vehicle: saline
  T/C: 128 % of control
dose: 30.0 mg/kg/injection, schedule: Q01DX005 (ip), vehicle: saline
  T/C: 147 % of control
dose: 400.0 mg/kg/injection, schedule: Q01DX009 (ip), vehicle: saline
  survivor count: 6 of 6
